Publication PMC11770119
These are yes or no findings as the source states them, for the method shown. Binding seen in cells or lysates may run through a third protein. Some entries that bind do so weakly or less than the wild type.

Amino acid sequences for entries named in this document (tags omitted).
UniProt P21707: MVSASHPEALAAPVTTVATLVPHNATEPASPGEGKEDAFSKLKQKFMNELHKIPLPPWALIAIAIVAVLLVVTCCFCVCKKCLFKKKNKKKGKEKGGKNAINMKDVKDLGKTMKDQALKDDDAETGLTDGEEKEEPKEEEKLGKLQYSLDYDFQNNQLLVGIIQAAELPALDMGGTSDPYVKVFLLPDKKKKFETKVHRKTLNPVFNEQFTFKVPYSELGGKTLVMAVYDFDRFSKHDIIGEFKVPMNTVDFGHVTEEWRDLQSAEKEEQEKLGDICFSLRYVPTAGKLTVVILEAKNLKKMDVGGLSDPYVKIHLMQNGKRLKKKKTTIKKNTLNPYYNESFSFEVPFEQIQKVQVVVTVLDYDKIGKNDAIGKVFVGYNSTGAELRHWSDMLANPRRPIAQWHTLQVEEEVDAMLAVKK
UniProt Q9JK66: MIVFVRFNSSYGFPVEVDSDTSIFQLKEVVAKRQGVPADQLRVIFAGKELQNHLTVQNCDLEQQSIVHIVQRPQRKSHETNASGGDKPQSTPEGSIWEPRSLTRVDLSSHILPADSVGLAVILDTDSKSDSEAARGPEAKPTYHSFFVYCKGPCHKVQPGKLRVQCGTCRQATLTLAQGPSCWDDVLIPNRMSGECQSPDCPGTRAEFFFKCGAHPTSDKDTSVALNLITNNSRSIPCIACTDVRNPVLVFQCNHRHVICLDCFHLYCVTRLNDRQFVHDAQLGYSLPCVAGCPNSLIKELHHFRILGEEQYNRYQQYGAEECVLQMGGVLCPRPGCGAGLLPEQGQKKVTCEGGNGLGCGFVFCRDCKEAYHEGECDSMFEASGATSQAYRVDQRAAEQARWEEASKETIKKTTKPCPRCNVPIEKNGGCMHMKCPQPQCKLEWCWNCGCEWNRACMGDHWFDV

Legend:
[1] = biological target: Synaptotagmin-1 (rat (endogenous in H9c2)) (UniProt P21707); test: co-IP; cardiomyocyte (H9c2) lysate in IP Lysis/Wash buffer incubated with antibody-crosslinked Protein A/G Plus Agarose resin at 4 °C overnight (Pierce Classic IP Kit); eluate blotted; cells with or without 500 μM H2O2, or infected with Syt1 overexpression or negative control adenovirus
[2] = biological target: Synaptotagmin-1, overexpressed from adenovirus (UniProt P21707); test: as above

binding [1]: binds
binding [2]: binds
Substance: Parkin (from UniProt Q9JK66 1-465) (enzyme)
